# Test results: the supplement of paper PMC8728848
# The list shows a part of the results.
# B1: Erv41-EDTA (Saccharomyces cerevisiae), Q04651 (protein)
# chain: MKFLVNVALVFMVVYISYIYAAAPEHHHHHHDYDIPTTENLYFQGAMGYIDQQYVVDSQVRDTVQINMDIYVNTKCDWLQINVRDQTMDRKLVLEELQLEEMPFFIPYDTKVNDINEIITPELDEILGEAIPAEFREKLDTRSFFDESDPNKAHLPEFNGCHVFGSIPVNRVSGELQITAKSLGYVASRKAPLEELKFNHVINEFSFGDFYPYIDNPLDNTAQFNQDEPLTTYVYYTSVVPTLFKKLGAEVDTNQYSVNDYRYLYKDVAAKGDKMPGIFFKYNFEPLSIVVSDVRL
# Experiments:
# Experiment in all cases: glycan array binding signal (z-score within array); higher = stronger binding
# Settings in all cases: glycan notation: IUPAC condensed, linker removed
# [1] = target: Gal(b1-3)GlcNAc(b1-3)Gal(b1-4)GlcNAc(b1-2)Man(a1-3)[Gal(b1-3)GlcNAc(b1-3)Gal(b1-4)GlcNAc(b1-2)Man(a1-6)]Man(b1-4)GlcNAc(b1-4)GlcNAc
# Procedure, shortened: (§1)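 From the Consortium for Functional Glycomics database, 3228 arrays were curated, keeping only those whose protein sequence was available. Binding is given as a within-array Z-score averaged across arrays sharing a protein sequence and across linkers. Negative Z-scores can be read as non-binding.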
# [2] = target: Gal(b1-3)GlcNAc(b1-3)Gal(b1-4)GlcNAc(b1-2)[Gal(b1-3)GlcNAc(b1-3)Gal(b1-4)GlcNAc(b1-6)]Man(a1-6)[Gal(b1-3)GlcNAc(b1-3)Gal(b1-4)GlcNAc(b1-2)Man(a1-3)]Man(b1-4)GlcNAc(b1-4)[Fuc(a1-6)]GlcNAc
# Procedure, shortened: as §1
# [3] = target: Gal(b1-3)GlcNAc(b1-3)Gal(b1-4)GlcNAc(b1-3)Gal(b1-4)GlcNAc(b1-2)[Gal(b1-3)GlcNAc(b1-3)Gal(b1-4)GlcNAc(b1-3)Gal(b1-4)GlcNAc(b1-6)]Man(a1-6)[Gal(b1-3)GlcNAc(b1-3)Gal(b1-4)GlcNAc(b1-3)Gal(b1-4)GlcNAc(b1-2)Man(a1-3)]Man(b1-4)GlcNAc(b1-4)[Fuc(a1-6)]GlcNAc
# Procedure, shortened: as §1
# [4] = target: Gal(b1-3)GlcNAc(b1-3)Gal(b1-4)GlcNAc(b1-6)[Gal(b1-3)GlcNAc(b1-3)]Gal(b1-4)Glc
# Procedure, shortened: as §1
# [5] = target: Gal(b1-3)GlcNAc(b1-3)Gal(b1-4)[Fuc(a1-3)]GlcNAc
# Procedure, shortened: as §1
# [6] = target: Gal(b1-3)GlcNAc(b1-3)Gal(b1-4)[Fuc(a1-3)]GlcNAc(b1-6)[Gal(b1-3)GlcNAc(b1-3)]Gal(b1-4)Glc
# Procedure, shortened: as §1
# [7] = target: Gal(b1-3)GlcNAc(b1-3)GalNAc
# Procedure, shortened: as §1
# [8] = target: Gal(b1-3)GlcNAc(b1-6)Gal(b1-4)GlcNAc
# Procedure, shortened: as §1
# [9] = target: Gal(b1-3)GlcNAc(b1-6)GalNAc
# Procedure, shortened: as §1
# [10] = target: Gal(b1-3)GlcNAc(b1-6)[Gal(b1-3)]GalNAc
# Procedure, shortened: as §1
# Gal(b1-3)GlcNAc6S = target: Gal(b1-3)GlcNAc6S
# Procedure, shortened: as §1
# [11] = target: Gal(b1-3)[Fuc(a1-4)]GlcNAc
# Procedure, shortened: as §1
# [12] = target: Gal(b1-3)[Fuc(a1-4)]GlcNAc(b1-2)Man
# Procedure, shortened: as §1
# [13] = target: Gal(b1-3)[Fuc(a1-4)]GlcNAc(b1-2)Man(a1-3)[Gal(b1-3)[Fuc(a1-4)]GlcNAc(b1-2)Man(a1-6)]Man(b1-4)GlcNAc(b1-4)[Fuc(a1-6)]GlcNAc
# Procedure, shortened: as §1
# [14] = target: Gal(b1-3)[Fuc(a1-4)]GlcNAc(b1-3)Gal(b1-3)[Fuc(a1-4)]GlcNAc
# Procedure, shortened: as §1
# [15] = target: Gal(b1-3)[Fuc(a1-4)]GlcNAc(b1-3)Gal(b1-4)[Fuc(a1-3)]GlcNAc
# Procedure, shortened: as §1
# [16] = target: Gal(b1-3)[Fuc(a1-4)]GlcNAc(b1-6)GalNAc
# Procedure, shortened: as §1
# [17] = target: Gal(b1-3)[GlcNAc(b1-6)]GalNAc
# Procedure, shortened: as §1
# [18] = target: Gal(b1-3)[Neu5Ac(a2-6)]GalNAc
# Procedure, shortened: as §1
# [19] = target: Gal(b1-3)[Neu5Ac(a2-6)]GlcNAc(b1-4)Gal(b1-4)Glc
# Procedure, shortened: as §1
# [20] = target: Gal(b1-3)[Neu5Ac(b2-6)]GalNAc
# Procedure, shortened: as §1
# Gal(b1-4)Gal = target: Gal(b1-4)Gal
# Procedure, shortened: as §1
# [21] = target: Gal(b1-4)GalNAc(a1-3)[Fuc(a1-2)]Gal(b1-4)GlcNAc
# Procedure, shortened: as §1
# [22] = target: Gal(b1-4)GalNAc(b1-3)[Fuc(a1-2)]Gal(b1-4)GlcNAc
# Procedure, shortened: as §1
# Gal(b1-4)Glc = target: Gal(b1-4)Glc
# Procedure, shortened: as §1
# Gal(b1-4)Glc6S = target: Gal(b1-4)Glc6S
# Procedure, shortened: as §1
# Gal(b1-4)GlcNAc = target: Gal(b1-4)GlcNAc
# Procedure, shortened: as §1
# [23] = target: Gal(b1-4)GlcNAc(a1-6)Gal(b1-4)GlcNAc
# Procedure, shortened: as §1
# Gal(b1-4)GlcNAc(b1-2)Man = target: Gal(b1-4)GlcNAc(b1-2)Man
# Procedure, shortened: as §1
# [24] = target: Gal(b1-4)GlcNAc(b1-2)Man(a1-3)Man(b1-4)GlcNAc(b1-4)GlcNAc
# Procedure, shortened: as §1
# [25] = target: Gal(b1-4)GlcNAc(b1-2)Man(a1-3)[Gal(b1-4)GlcNAc(b1-2)Man(a1-6)]Man(b1-4)GlcNAc(b1-4)GlcNAc
# Procedure, shortened: as §1
# [26] = target: Gal(b1-4)GlcNAc(b1-2)Man(a1-3)[Gal(b1-4)GlcNAc(b1-2)Man(a1-6)]Man(b1-4)GlcNAc(b1-4)[Fuc(a1-6)]GlcNAc
# Procedure, shortened: as §1
# [27] = target: Gal(b1-4)GlcNAc(b1-2)Man(a1-3)[Gal(b1-4)GlcNAc(b1-2)Man(a1-6)][Gal(b1-4)GlcNAc(b1-4)]Man(b1-4)GlcNAc(b1-4)[Fuc(a1-6)]GlcNAc
# Procedure, shortened: as §1
# [28] = target: Gal(b1-4)GlcNAc(b1-2)Man(a1-3)[Gal(b1-4)GlcNAc(b1-2)Man(a1-6)][GlcNAc(b1-4)]Man(b1-4)GlcNAc(b1-4)[Fuc(a1-6)]GlcNAc
# Procedure, shortened: as §1
# [29] = target: Gal(b1-4)GlcNAc(b1-2)Man(a1-3)[GlcNAc(b1-2)Man(a1-6)]Man(b1-4)GlcNAc(b1-4)GlcNAc
# Procedure, shortened: as §1
# [30] = target: Gal(b1-4)GlcNAc(b1-2)Man(a1-3)[GlcNAc(b1-4)][Gal(b1-4)GlcNAc(b1-2)Man(a1-6)]Man(b1-4)GlcNAc(b1-4)GlcNAc
# Procedure, shortened: as §1
# [31] = target: Gal(b1-4)GlcNAc(b1-2)Man(a1-3)[Man(a1-6)]Man(b1-4)GlcNAc(b1-4)GlcNAc
# Procedure, shortened: as §1
# [32] = target: Gal(b1-4)GlcNAc(b1-2)Man(a1-6)Man(b1-4)GlcNAc(b1-4)GlcNAc
# Procedure, shortened: as §1
binder,measurement,setting,value
B1,glycan array binding signal (z-score),[1],0.685
same,glycan array binding signal (z-score),[2],1.14
same,glycan array binding signal (z-score),[3],1.31
same,glycan array binding signal (z-score),[4],0.268
same,glycan array binding signal (z-score),[5],-1.54
same,glycan array binding signal (z-score),[6],-0.042
same,glycan array binding signal (z-score),[7],-0.47
same,glycan array binding signal (z-score),[8],0.559
same,glycan array binding signal (z-score),[9],0.183
same,glycan array binding signal (z-score),[10],-0.857
same,glycan array binding signal (z-score),Gal(b1-3)GlcNAc6S,-0.163
same,glycan array binding signal (z-score),[11],0.199
same,glycan array binding signal (z-score),[12],-0.743
same,glycan array binding signal (z-score),[13],0.503
same,glycan array binding signal (z-score),[14],-0.815
same,glycan array binding signal (z-score),[15],-0.459
same,glycan array binding signal (z-score),[16],0.129
same,glycan array binding signal (z-score),[17],-0.284
same,glycan array binding signal (z-score),[18],-0.34
same,glycan array binding signal (z-score),[19],-0.127
same,glycan array binding signal (z-score),[20],-1.1
same,glycan array binding signal (z-score),Gal(b1-4)Gal,0.294
same,glycan array binding signal (z-score),[21],-0.701
same,glycan array binding signal (z-score),[22],-0.454
same,glycan array binding signal (z-score),Gal(b1-4)Glc,-0.527
same,glycan array binding signal (z-score),Gal(b1-4)Glc6S,0.156
same,glycan array binding signal (z-score),Gal(b1-4)GlcNAc,-0.475
same,glycan array binding signal (z-score),[23],-1.28
same,glycan array binding signal (z-score),Gal(b1-4)GlcNAc(b1-2)Man,-0.249
same,glycan array binding signal (z-score),[24],0.159
same,glycan array binding signal (z-score),[25],-0.382
same,glycan array binding signal (z-score),[26],1.05
same,glycan array binding signal (z-score),[27],-0.982
same,glycan array binding signal (z-score),[28],0.507
same,glycan array binding signal (z-score),[29],-1.18
same,glycan array binding signal (z-score),[30],0.638
same,glycan array binding signal (z-score),[31],-0.987
same,glycan array binding signal (z-score),[32],-0.604

# 2 records picked at random from those above:
binder,measurement,setting,value
B1,glycan array binding signal (z-score),[26],1.05
same,glycan array binding signal (z-score),[31],-0.987
